Values quoted from earlier work, collected in patent US20100099762A1, “COMBINATION THERAPY” (THE MENTAL HEALTH RESEARCH INSTITUTE OF VICTORIA, priority 2006, published 2010).
At least one structure is not confirmed: it was looked up by name or label, or the drawing left a doubt.

Test system: treatment-resistant schizophrenia
Conditions: switching from typical antipsychotic medication to optimal clozapine treatment; cited from earlier work

CN1CCN(C2=Nc3cc(Cl)ccc3Nc3ccccc32)CC1 [clozapine]
Effect size for improvement of specific positive and negative symptoms: 0.5
